Experimental data reported in the supplement of paper PMC6411743.
± gives the standard deviation of the averaged measurements. The list shows a part of the results, in another mix than the full data. Most entries show no effect beyond the scatter of the controls.

Amino acid sequences for entries named in this document (tags omitted). A change or cut given only in a name is not applied to a line headed by its entry.
UniProt Q53T59: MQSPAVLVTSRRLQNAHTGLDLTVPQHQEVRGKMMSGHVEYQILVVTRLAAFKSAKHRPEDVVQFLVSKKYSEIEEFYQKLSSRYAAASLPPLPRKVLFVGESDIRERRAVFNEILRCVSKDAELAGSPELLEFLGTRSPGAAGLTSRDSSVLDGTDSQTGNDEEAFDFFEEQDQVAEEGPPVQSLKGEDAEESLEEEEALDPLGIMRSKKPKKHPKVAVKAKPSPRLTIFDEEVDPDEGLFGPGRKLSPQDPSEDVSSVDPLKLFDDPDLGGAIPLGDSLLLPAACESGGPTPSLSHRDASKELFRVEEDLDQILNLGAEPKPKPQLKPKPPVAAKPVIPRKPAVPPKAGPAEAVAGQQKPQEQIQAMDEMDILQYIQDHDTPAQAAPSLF
UniProt Q53S33: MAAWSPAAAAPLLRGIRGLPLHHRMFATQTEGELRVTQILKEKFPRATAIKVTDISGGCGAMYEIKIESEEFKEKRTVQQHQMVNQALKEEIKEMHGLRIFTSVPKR
UniProt Q49B96: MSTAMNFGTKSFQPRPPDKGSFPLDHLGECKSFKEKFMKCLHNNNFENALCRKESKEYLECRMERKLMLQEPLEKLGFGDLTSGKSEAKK
UniProt Q5TDH0: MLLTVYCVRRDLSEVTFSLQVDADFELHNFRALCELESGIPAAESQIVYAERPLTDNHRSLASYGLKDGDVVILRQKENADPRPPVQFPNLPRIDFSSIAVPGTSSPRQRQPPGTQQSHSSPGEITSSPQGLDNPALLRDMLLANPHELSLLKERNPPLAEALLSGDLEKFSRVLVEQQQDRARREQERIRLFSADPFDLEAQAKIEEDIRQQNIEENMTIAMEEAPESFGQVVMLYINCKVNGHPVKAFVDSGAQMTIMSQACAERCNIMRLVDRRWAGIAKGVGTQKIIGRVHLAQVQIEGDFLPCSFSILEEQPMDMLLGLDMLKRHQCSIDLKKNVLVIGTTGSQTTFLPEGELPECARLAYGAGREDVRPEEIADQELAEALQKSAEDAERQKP
UniProt Q15286: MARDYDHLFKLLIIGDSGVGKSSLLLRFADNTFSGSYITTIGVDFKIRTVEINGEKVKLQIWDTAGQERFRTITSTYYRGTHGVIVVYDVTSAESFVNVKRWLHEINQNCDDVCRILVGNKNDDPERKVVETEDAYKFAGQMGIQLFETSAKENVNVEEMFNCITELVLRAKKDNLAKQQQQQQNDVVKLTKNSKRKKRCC
UniProt Q49AR2: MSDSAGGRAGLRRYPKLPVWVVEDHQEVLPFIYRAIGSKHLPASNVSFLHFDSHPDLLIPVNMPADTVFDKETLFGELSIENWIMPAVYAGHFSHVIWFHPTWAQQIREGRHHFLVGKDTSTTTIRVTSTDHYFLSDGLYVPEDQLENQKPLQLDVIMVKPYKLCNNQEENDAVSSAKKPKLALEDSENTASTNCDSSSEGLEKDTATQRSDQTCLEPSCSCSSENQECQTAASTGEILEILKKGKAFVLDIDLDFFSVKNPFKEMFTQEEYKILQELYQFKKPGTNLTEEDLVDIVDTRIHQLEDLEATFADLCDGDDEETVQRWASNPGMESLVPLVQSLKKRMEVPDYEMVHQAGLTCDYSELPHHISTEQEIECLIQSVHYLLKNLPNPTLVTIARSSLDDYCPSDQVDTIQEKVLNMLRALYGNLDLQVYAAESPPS
UniProt Q9BVM2: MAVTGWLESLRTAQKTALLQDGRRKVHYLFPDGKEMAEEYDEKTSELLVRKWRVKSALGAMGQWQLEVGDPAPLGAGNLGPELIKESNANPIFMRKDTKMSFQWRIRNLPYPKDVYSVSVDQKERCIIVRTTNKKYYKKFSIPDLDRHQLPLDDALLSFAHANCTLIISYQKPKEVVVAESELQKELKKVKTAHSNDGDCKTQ
UniProt Q15459: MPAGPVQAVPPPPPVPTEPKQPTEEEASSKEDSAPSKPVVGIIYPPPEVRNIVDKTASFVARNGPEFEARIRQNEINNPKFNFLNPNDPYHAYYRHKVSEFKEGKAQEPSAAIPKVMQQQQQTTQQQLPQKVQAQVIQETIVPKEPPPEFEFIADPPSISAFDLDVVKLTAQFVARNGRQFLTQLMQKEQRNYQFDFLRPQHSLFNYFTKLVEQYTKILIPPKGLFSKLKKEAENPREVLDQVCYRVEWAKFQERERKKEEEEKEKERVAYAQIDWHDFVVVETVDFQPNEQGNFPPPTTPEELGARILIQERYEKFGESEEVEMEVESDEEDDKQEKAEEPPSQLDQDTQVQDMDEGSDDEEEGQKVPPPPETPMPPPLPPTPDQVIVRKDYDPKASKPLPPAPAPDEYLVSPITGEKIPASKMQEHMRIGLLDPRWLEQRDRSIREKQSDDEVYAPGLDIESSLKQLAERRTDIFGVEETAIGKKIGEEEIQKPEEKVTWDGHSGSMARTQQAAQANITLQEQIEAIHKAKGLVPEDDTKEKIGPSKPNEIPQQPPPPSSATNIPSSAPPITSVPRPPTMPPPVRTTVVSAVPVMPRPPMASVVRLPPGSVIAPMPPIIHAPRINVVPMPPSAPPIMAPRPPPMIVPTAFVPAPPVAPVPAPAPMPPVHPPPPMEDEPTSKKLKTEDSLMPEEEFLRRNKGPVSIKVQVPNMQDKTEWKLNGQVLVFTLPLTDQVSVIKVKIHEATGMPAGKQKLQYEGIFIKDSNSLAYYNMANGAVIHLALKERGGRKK
UniProt Q15393: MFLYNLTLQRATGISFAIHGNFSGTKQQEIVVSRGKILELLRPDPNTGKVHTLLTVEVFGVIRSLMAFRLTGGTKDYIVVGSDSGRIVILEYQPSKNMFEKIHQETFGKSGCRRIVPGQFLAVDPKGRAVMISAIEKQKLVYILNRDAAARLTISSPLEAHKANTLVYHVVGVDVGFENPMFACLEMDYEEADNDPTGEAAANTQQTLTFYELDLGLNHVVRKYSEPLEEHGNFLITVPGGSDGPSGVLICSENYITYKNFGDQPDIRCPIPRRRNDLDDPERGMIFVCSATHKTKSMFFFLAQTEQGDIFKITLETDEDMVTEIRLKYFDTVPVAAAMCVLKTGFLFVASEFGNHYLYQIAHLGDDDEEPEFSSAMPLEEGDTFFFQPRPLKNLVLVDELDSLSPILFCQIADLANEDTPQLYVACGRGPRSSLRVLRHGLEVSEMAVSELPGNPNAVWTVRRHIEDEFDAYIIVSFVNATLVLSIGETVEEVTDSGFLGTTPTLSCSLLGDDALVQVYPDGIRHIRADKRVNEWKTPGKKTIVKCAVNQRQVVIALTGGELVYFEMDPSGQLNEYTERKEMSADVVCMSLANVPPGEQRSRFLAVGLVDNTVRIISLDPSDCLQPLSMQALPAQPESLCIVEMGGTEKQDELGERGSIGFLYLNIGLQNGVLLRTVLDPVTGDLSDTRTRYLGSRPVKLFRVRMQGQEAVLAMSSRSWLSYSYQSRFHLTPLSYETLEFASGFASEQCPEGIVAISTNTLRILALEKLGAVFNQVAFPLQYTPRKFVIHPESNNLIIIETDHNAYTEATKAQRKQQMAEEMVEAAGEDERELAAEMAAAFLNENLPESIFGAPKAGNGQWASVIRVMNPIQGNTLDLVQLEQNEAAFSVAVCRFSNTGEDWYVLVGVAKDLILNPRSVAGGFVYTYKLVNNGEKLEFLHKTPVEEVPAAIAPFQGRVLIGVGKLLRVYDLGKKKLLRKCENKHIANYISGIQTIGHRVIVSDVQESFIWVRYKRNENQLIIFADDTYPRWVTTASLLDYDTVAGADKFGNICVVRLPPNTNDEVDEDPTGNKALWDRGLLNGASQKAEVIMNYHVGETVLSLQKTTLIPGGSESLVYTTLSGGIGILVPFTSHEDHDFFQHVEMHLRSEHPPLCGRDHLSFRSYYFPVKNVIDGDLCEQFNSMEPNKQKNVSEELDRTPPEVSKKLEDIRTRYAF
UniProt Q5RI15: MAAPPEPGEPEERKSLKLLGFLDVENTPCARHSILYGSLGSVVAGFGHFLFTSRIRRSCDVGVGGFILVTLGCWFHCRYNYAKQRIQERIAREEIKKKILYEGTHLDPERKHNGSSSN
UniProt Q15813: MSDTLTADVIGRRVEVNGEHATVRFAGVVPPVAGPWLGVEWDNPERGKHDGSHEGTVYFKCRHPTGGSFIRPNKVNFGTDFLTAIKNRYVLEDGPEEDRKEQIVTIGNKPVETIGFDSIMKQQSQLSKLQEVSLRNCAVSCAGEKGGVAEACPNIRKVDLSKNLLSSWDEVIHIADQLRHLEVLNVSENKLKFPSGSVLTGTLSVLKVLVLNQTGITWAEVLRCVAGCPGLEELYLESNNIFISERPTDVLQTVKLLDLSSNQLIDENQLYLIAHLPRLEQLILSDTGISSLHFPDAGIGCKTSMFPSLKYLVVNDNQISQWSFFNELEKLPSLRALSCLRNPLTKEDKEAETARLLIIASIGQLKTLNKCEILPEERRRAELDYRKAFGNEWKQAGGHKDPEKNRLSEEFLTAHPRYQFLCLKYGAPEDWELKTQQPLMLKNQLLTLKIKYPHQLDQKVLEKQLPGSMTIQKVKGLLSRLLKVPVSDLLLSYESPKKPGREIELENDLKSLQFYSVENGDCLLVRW
UniProt Q15397: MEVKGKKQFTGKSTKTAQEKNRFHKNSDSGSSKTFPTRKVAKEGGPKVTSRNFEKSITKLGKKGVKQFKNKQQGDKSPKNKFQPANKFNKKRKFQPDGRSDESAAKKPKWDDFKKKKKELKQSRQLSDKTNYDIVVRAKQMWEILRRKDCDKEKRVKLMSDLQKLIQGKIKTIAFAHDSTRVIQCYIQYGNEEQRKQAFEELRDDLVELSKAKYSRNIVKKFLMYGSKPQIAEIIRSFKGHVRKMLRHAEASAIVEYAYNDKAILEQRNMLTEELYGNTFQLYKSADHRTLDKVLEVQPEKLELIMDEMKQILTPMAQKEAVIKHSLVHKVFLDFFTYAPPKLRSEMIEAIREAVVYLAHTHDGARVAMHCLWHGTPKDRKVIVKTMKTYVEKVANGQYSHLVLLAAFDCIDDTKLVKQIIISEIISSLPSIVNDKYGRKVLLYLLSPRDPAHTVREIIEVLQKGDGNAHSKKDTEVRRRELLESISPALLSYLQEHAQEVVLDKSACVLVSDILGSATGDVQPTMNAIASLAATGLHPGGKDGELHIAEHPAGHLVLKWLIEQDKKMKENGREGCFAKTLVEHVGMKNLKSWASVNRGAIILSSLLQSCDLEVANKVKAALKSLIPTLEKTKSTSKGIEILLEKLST
UniProt Q5T160: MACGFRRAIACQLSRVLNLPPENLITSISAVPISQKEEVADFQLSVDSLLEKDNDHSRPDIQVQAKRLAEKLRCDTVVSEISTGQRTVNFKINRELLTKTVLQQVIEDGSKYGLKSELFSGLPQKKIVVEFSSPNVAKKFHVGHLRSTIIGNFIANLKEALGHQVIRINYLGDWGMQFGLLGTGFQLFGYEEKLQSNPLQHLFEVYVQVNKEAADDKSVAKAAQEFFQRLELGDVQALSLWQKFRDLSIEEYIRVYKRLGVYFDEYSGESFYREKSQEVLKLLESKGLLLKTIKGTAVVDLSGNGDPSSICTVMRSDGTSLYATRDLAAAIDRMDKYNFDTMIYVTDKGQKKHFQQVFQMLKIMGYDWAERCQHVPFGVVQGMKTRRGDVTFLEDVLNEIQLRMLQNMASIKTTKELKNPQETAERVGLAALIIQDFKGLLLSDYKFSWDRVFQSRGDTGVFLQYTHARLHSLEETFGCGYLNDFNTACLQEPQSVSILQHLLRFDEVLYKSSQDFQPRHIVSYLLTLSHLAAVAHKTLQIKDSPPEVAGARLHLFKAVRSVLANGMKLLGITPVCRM
UniProt Q5BKX5: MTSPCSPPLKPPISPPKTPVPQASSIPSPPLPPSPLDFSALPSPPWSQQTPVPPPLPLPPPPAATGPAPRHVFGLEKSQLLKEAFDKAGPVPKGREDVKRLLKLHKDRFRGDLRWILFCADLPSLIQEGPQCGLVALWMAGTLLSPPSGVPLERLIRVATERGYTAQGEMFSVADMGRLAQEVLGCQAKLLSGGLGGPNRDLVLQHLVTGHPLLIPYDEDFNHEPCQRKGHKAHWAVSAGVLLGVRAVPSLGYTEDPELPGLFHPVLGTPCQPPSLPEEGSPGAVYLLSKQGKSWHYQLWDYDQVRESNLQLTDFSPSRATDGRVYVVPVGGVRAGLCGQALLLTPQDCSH

Compound: Nc1ncnc2c1ncn2[C@@H]1O[C@H](COP(=O)(O)OP(=O)(O)NP(=O)(O)O)[C@@H](O)[C@H]1O [adenylyl imidodiphosphate]
Test: NP40-soluble protein abundance relative to vehicle (solubility fold change) (ratio); higher = more soluble protein in presence of AMP-PNP
In short: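 Values are fold changes against the detergent-processed vehicle, based on vsn-normalised intensities. Jurkat crude lysate was treated at eight concentrations from 0.1 to 10 mM (10 min at room temperature, then 3 min at 37 °C), solubilised with 0.8% NP40 and benzonase, ultracentrifuged and analysed by TMT-labelled LC-MS/MS over three independent experiments.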

Target	NP40-soluble protein abundance (concentration: 0.1mM)	NP40-soluble protein abundance (concentration: 0.5mM)
UniProt Q3B7T1 and related entries	1.01 ± 0.019	0.978 ± 0.045
HS1BP3 (UniProt Q53T59)	1 ± 0.028	0.9987 ± 0.0074
UniProt Q3KQU3-4|Q3KQU3	1.09 ± 0.042	1.06 ± 0.041
BOLA3 (UniProt Q53S33)	0.945 ± 0.038	0.9745 ± 0.0023
TWISTNB (UniProt Q3B726)	0.996 ± 0.076	0.986 ± 0.01
COX19 (UniProt Q49B96)	1.029 ± 0.0041	0.989 ± 0.047
Q5JWM4 and related entries (UniProt Q9H6P5)	0.983 ± 0.046	0.991 ± 0.029
UniProt Q15424 and related entries	1.01 ± 0.035	1.05 ± 0.023
UniProt Q5TDH0 and related entries	1.01 ± 0.031	0.992 ± 0.026
UniProt Q5T3I0 and related entries	1.07 ± 0.023	1.08 ± 0.053
UniProt Q15329 and related entries	0.972 ± 0.013	0.976 ± 0.044
UniProt Q5JS54 and related entries	0.9903 ± 0.0047	0.992 ± 0.041
MAPKAPK3 (UniProt Q16644)	0.961 ± 0.015	1.01 ± 0.039
UniProt Q15438 and related entries	0.993 ± 0.039	0.978 ± 0.037
UniProt Q5TC82 and related entries	1.01 ± 0.027	1 ± 0.02
UniProt Q5M775 and related entries	0.981 ± 0.035	1.01 ± 0.07
UniProt Q17R31 and related entries	1 ± 0.021	1 ± 0.012
LACTB2 (UniProt Q53H82)	0.9831 ± 0.0026	0.9851 ± 0.0047
UniProt Q15286	0.972 ± 0.044	0.976 ± 0.037
C5orf22 (UniProt Q49AR2)	0.988 ± 0.031	0.98 ± 0.067

Target	NP40-soluble protein abundance (concentration: 0.1mM)	NP40-soluble protein abundance (concentration: 0.5mM)
Q5JQQ4 and related entries (UniProt Q9BVM2)	1.03 ± 0.039	1.02 ± 0.061
AARS2 (UniProt Q5JTZ9)	1.04 ± 0.042	0.98 ± 0.03
UniProt Q5T4S7 and related entries	1.03 ± 0.021	0.978 ± 0.067
UniProt Q16854 and related entries	0.999 ± 0.03	0.93 ± 0.082
UniProt Q4LE39 and related entries	1 ± 0.054	0.997 ± 0.051
UniProt Q5TCQ9-4	0.9796 ± 0.0053	1 ± 0.012
KLHL22 (UniProt Q53GT1)	1 ± 0.011	1.017 ± 0.0027
SEC23B (UniProt Q15437)	1.05 ± 0.025	1.02 ± 0.056
SF3A1 (UniProt Q15459)	0.995 ± 0.022	1.02 ± 0.024
UniProt Q5TA45 and related entries	1.02 ± 0.066	0.997 ± 0.039
ARHGAP15 (UniProt Q53QZ3)	1.02 ± 0.029	1.02 ± 0.044
UniProt Q52LJ0-2	0.977 ± 0.049	0.974 ± 0.044
SF3B3 (UniProt Q15393)	1.029 ± 0.0052	1.02 ± 0.072
UniProt Q5T1V6 and related entries	1.01 ± 0.013	0.991 ± 0.051
CMPK2 (UniProt Q5EBM0)	1.01 ± 0.023	0.987 ± 0.051
UniProt Q1ED39	0.974 ± 0.031	1.01 ± 0.055
UniProt Q15796 and related entries	1 ± 0.022	1.05 ± 0.037
Q5TZT0 and related entries (UniProt Q9NSU2)	0.9818 ± 0.0095	0.981 ± 0.013
UniProt Q5RI15 and related entries	1.02 ± 0.089	1.09 ± 0.11
UniProt Q5SRE5 and related entries	1 ± 0.014	0.989 ± 0.033

Target	NP40-soluble protein abundance (concentration: 0.1mM)	NP40-soluble protein abundance (concentration: 0.5mM)
UniProt Q15813 and related entries	1.003 ± 0.0055	1.005 ± 0.0025
TRIP13 (UniProt Q15645)	1.03 ± 0.062	0.974 ± 0.053
UniProt Q5JSP0 and related entries	1.02 ± 0.026	1.01 ± 0.036
UniProt Q3L8U1 and related entries	1.01 ± 0.053	0.986 ± 0.024
UniProt Q5T440	1.04 ± 0.034	0.992 ± 0.056
UniProt Q504Q3 and related entries	1 ± 0.021	1.005 ± 0.0091
STXBP2 (UniProt Q15833)	1 ± 0.026	0.96 ± 0.032
UniProt Q5HYK3 and related entries	0.976 ± 0.025	0.969 ± 0.027
AMOT (UniProt Q4VCS5)	0.991 ± 0.035	1.01 ± 0.018
UniProt Q2PPJ7 and related entries	0.961 ± 0.063	1.03 ± 0.14
UniProt Q5T6F0	0.925 ± 0.071	0.919 ± 0.0094
UniProt Q15397	0.996 ± 0.018	1.02 ± 0.015
HSP90AA4P (UniProt Q58FG1)	0.936 ± 0.034	0.856 ± 0.029
UniProt Q5T3J3	1.027 ± 0.0049	1.05 ± 0.012
RARS2 (UniProt Q5T160)	0.978 ± 0.036	0.984 ± 0.076
Q5SZG2 and related entries (UniProt Q8TAK5)	0.9902 ± 0.0032	1 ± 0.016
UniProt Q4AE62 and related entries	1.01 ± 0.037	0.988 ± 0.026
UniProt Q5T0N5-4	0.995 ± 0.01	0.986 ± 0.033
C19orf54 (UniProt Q5BKX5)	1.02 ± 0.043	0.992 ± 0.068
SKIV2L (UniProt Q15477)	0.82 ± 0.082	0.826 ± 0.068
